# Legend:
# [1] = test system: patients with moderately severe Acute Lung Injury (ALI); assay: Adult ALI/ARDS study, 5 ppm iNO versus placebo: efficacy and respiratory parameters; assay type: in vivo, human; details: over the length of mechanical ventilation
# Method: A large-scale, randomized, blinded, placebo-controlled study was carried out in the Intensive Care Units (ICUs) of 46 US hospitals to evaluate the efficacy of low-dose (5 ppm) iNO in 385 patients with moderately severe Acute Lung Injury (ALI). The primary endpoint of this study was number of days alive and off assisted breathing.
# Patients had acute lung injury (ALI), defined by a modification of American-European Consensus Conference criteria (PaO2/inspired oxygen concentration [FiO2] ratio of ≤250 mm Hg), due to causes other than severe sepsis. Patients with evidence of non-pulmonary system failure at the time of randomization and sepsis-induced ARDS were excluded. […]
# All patients using the iNO delivery system received mechanical ventilatory support. […] Increments of upward titration were determined by the clinician, based on degree of arterial desaturation.
# Baseline oxygenation measures included PaO2, arterial partial pressure of CO2 (PaCO2), SpO2, FiO2, PEEP, PaO2/FiO2 ratio, […], tidal volume, and mean airway pressure. Respiratory parameters (FiO2, PEEP, and PaO2/FiO2 ratio) were recorded on case report forms every 12 hours during mechanical ventilation. […]
# [2] = test system: pediatric subjects with acute hypoxemic respiratory failure (AHRF); assay: Pediatric AHRF study: respiratory values (oxygen status, HFOV, CMV, ABG); assay type: in vivo, human; details: 5 ppm
# Method: Standardized ventilatory management and weaning procedures were used. Ventilatory management was used based on an “open lung approach” using positive end-expiratory pressure (PEEP) to increase lung volume and limiting tidal volumes to reduce plateau pressures. Subjects received nitric oxide for inhalation at 5 ppm or placebo (100% Grade 5 nitrogen gas) into the inspiratory limb of the ventilator circuit using a blinded version of the INOvent® delivery system. The subjects were treated until Day 28 or extubation, whichever occurred first. Subjects were assessed daily using a spontaneous breathing trial, according to the institution's standard of care. Arterial blood gases (ABG), ventilator settings, methemoglobin, oxygenation index, systolic blood pressure, diastolic blood pressure, Pediatric Risk of Mortality (PRISM) III score, and subject positioning (prone or supine) were performed/recorded at specified times during the study. Selected centers also performed plasma cytokine assays, bronchoalveolar lavage fluid (BALF) assays, and a 6-month follow-up assessment.
# The following assessments were made at baseline: arterial blood gases, ventilator settings, methemoglobin, prone position, PRISM III score, oxygenation index, systolic and diastolic blood pressure, bronchoalveolar lavage fluid assay and plasma cytokine.
# The following assessments were made at 4 hours±1 hour after the start of therapy: arterial blood gases, ventilator settings and methemoglobin.
# The following assessments were made at 12 hours±2 hours after the start of therapy: arterial blood gases and ventilator settings.
# The following assessments were made at 24 hours±2 hours after the start of therapy: arterial blood gases, ventilator settings, methemoglobin, systolic and diastolic blood pressure and plasma cytokine.
# Oxygen status was determined at screening only. Respiratory values in the HFOV category were obtained at baseline, 4 hours, 12 hours, and 24 hours. Respiratory values in the categories conventional mechanical ventilation [CMV] and ABG were obtained at baseline, 4 hours, 12 hours, 24 hours, and at extubation.
smiles,measurement,setting,value
"[N]=O [Nitric Oxide, nitric oxide]","cumulative exposure to FiO2, PEEP and PaO2/FiO2 ratio versus placebo",[1],less cumulative exposure
same,"CMV FiO2, Mean (SD)",[2]; 4 Hours,63.9 (20.0) %
same,"CMV FiO2, Median",[2]; 4 Hours,60.0%
same,"CMV Inspiratory Time, Mean (SD)",[2]; 4 Hours,0.8 (0.2) s
same,"CMV Inspiratory Time, Median",[2]; 4 Hours,0.8 s
same,"CMV MAP, Mean (SD)",[2]; 4 Hours,17.0 (3.5) cmH2O
same,"CMV MAP, Median",[2]; 4 Hours,17.5 cmH2O
same,"CMV PEEP, Mean (SD)",[2]; 4 Hours,10.7 (3.2) cmH2O
same,"CMV PEEP, Median",[2]; 4 Hours,10.5 cmH2O
same,"CMV Pplat, Mean (SD)",[2]; 4 Hours,29.0 (2.0) cmH2O
same,"CMV Pplat, Median",[2]; 4 Hours,29.0 cmH2O
same,"CMV Rate, Mean (SD)",[2]; 4 Hours,25.5 (5.9) /min
same,"CMV Rate, Median",[2]; 4 Hours,27.0 min⁻¹
same,"CMV Set Vt, Mean (SD)",[2]; 4 Hours,131.3 (82.9) mL
same,"CMV Set Vt, Median",[2]; 4 Hours,110.0 mL
same,"HFOV FiO2, Mean (SD)",[2]; 4 Hours,52.9 (27.3) %
same,"HFOV FiO2, Median",[2]; 4 Hours,40.0%
same,"HFOV Hertz, Mean (SD)",[2]; 4 Hours,7.4 (1.9) min
same,"HFOV Hertz, Median",[2]; 4 Hours,7.0 min
same,"HFOV Inspiratory Time, Mean (SD)",[2]; 4 Hours,5.0 (12.4) s
same,"HFOV Inspiratory Time, Median",[2]; 4 Hours,0.3 s
same,"HFOV MAP, Mean (SD)",[2]; 4 Hours,26.6 (4.7) cmH2O
same,"HFOV MAP, Median",[2]; 4 Hours,25.0 cmH2O
same,"HFOV delta P, Mean (SD)",[2]; 4 Hours,48.0 (15.5) cmH2O
same,"HFOV delta P, Median",[2]; 4 Hours,45.5 cmH2O
same,"CMV FiO2, Mean (SD)",[2]; 12 Hours,59.0 (18.9) %
same,"CMV FiO2, Median",[2]; 12 Hours,55.0%
same,"CMV Inspiratory Time, Mean (SD)",[2]; 12 Hours,0.8 (0.2) s
same,"CMV Inspiratory Time, Median",[2]; 12 Hours,0.8 s
same,"CMV MAP, Mean (SD)",[2]; 12 Hours,16.7 (3.8) cmH2O
same,"CMV MAP, Median",[2]; 12 Hours,18.0 cmH2O
same,"CMV PEEP, Mean (SD)",[2]; 12 Hours,10.6 (3.2) cmH2O
same,"CMV PEEP, Median",[2]; 12 Hours,10.0 cmH2O
same,"CMV Pplat, Mean (SD)",[2]; 12 Hours,25.8 (6.7) cmH2O
same,"CMV Pplat, Median",[2]; 12 Hours,28.0 cmH2O
same,"CMV Rate, Mean (SD)",[2]; 12 Hours,24.5 (5.7) /min
same,"CMV Rate, Median",[2]; 12 Hours,25.0 min⁻¹
same,"CMV Set Vt, Mean (SD)",[2]; 12 Hours,126.5 (89.2) mL
same,"CMV Set Vt, Median",[2]; 12 Hours,100.0 mL
same,"HFOV FiO2, Mean (SD)",[2]; 12 Hours,43.8 (16.0) %
same,"HFOV FiO2, Median",[2]; 12 Hours,42.5%
same,"HFOV Hertz, Mean (SD)",[2]; 12 Hours,7.9 (1.6) min
same,"HFOV Hertz, Median",[2]; 12 Hours,7.5 min
same,"HFOV Inspiratory Time, Mean (SD)",[2]; 12 Hours,4.4 (11.6) s
same,"HFOV Inspiratory Time, Median",[2]; 12 Hours,0.3 s
same,"HFOV MAP, Mean (SD)",[2]; 12 Hours,25.5 (5.2) cmH2O
same,"HFOV MAP, Median",[2]; 12 Hours,23.9 cmH2O
same,"HFOV delta P, Mean (SD)",[2]; 12 Hours,46.1 (14.3) cmH2O
same,"HFOV delta P, Median",[2]; 12 Hours,36.0 cmH2O
same,"CMV FiO2, Mean (SD)",[2]; 24 Hours,58.1 (16.6) %
same,"CMV FiO2, Median",[2]; 24 Hours,55.0%
same,"CMV Inspiratory Time, Mean (SD)",[2]; 24 Hours,0.8 (0.2) s
same,"CMV Inspiratory Time, Median",[2]; 24 Hours,0.8 s
same,"CMV MAP, Mean (SD)",[2]; 24 Hours,16.0 (3.9) cmH2O
same,"CMV MAP, Median",[2]; 24 Hours,15.5 cmH2O
same,"CMV PEEP, Mean (SD)",[2]; 24 Hours,9.8 (2.9) cmH2O
same,"CMV PEEP, Median",[2]; 24 Hours,10.0 cmH2O
same,"CMV Pplat, Mean (SD)",[2]; 24 Hours,30.0 (4.6) cmH2O
same,"CMV Pplat, Median",[2]; 24 Hours,29.0 cmH2O
same,"CMV Rate, Mean (SD)",[2]; 24 Hours,25.0 (6.6) /min
same,"CMV Rate, Median",[2]; 24 Hours,25.5 min⁻¹
same,"CMV Set Vt, Mean (SD)",[2]; 24 Hours,123.3 (86.4) mL
same,"CMV Set Vt, Median",[2]; 24 Hours,100.0 mL
same,"HFOV FiO2, Mean (SD)",[2]; 24 Hours,44.0 (20.4) %
same,"HFOV FiO2, Median",[2]; 24 Hours,35.0%
same,"HFOV Hertz, Mean (SD)",[2]; 24 Hours,8.3 (1.9) min
same,"HFOV Hertz, Median",[2]; 24 Hours,8.0 min
same,"HFOV Inspiratory Time, Mean (SD)",[2]; 24 Hours,6.8 (14.6) s
same,"HFOV Inspiratory Time, Median",[2]; 24 Hours,0.3 s
same,"HFOV MAP, Mean (SD)",[2]; 24 Hours,25.2 (4.2) cmH2O
same,"HFOV MAP, Median",[2]; 24 Hours,24.0 cmH2O
same,"HFOV delta P, Mean (SD)",[2]; 24 Hours,41.3 (12.2) cmH2O
same,"HFOV delta P, Median",[2]; 24 Hours,38.5 cmH2O
same,"CMV FiO2, Mean (SD)",[2]; Extubation Criteria,38.1 (12.5) %
same,"CMV FiO2, Median",[2]; Extubation Criteria,40.0%
same,"CMV Inspiratory Time, Mean (SD)",[2]; Extubation Criteria,0.8 (0.1) s
same,"CMV Inspiratory Time, Median",[2]; Extubation Criteria,0.8 s
same,"CMV MAP, Mean (SD)",[2]; Extubation Criteria,10.2 (2.3) cmH2O
same,"CMV MAP, Median",[2]; Extubation Criteria,10.0 cmH2O
same,"CMV PEEP, Mean (SD)",[2]; Extubation Criteria,5.8 (0.7) cmH2O
same,"CMV PEEP, Median",[2]; Extubation Criteria,6.0 cmH2O
same,"CMV Pplat, Mean (SD)",[2]; Extubation Criteria,21.0 (6.2) cmH2O
same,"CMV Pplat, Median",[2]; Extubation Criteria,19.0 cmH2O
same,"CMV Rate, Mean (SD)",[2]; Extubation Criteria,16.3 (7.9) /min
same,"CMV Rate, Median",[2]; Extubation Criteria,15.5 min⁻¹
same,"CMV Set Vt, Mean (SD)",[2]; Extubation Criteria,106.9 (33.6) mL
same,"CMV Set Vt, Median",[2]; Extubation Criteria,109.5 mL
